{"source": "PubChem BioAssay AID720505, Drosophila RNAi Screening Center – 2013", "test": "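Knock-downs that reduce calcium influx once internal stores are emptied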 (primary screen)", "system": "Drosophila S2R+ cells", "reagents": "long dsRNA against Drosophila genes", "conditions": "thapsigargin (2 µM) in calcium-free buffer to empty internal stores, then 2 mM calcium added back", "detection": "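Stores emptied by 2 µM thapsigargin without calcium, then 2 mM calcium re-added; fluo-4 fluorescence followed by FLIPR in 384-well plates, per-well averaged endpoint, raw; two screen passes, some wells retested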", "scale": "calcium signal: higher = more calcium entry after store depletion", "rule for the call": "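About 1500 genes called as lowering calcium entry, by varying amounts, judged against per-plate control wells with STIM1 as positive and Rho1 as negative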", "calls": "active = called as lowering calcium entry; inactive = not called", "note": "The screen tested about 20,000 reagents; below is a random part of those with a known target gene and a result. Of all reagents, about 2,100 (10%) are marked active. 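Raw plate signals without normalisation; calls rest on control-based scores that were not deposited; replicate 2 separates called from uncalled poorly.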 Entries without a mark were called inactive. The numbers tell different reagents against one gene apart. A plus sign joins genes that one reagent is predicted to hit. Reagent sequences are not shown. Not stated in the record: the amount of reagent, the time to read-out."}
{"target gene":"Lmx1a","reagent no.":1,"calcium signal, replicate 1":114,"calcium signal, replicate 2":95.1}
{"target gene":"Lmx1a","reagent no.":2,"calcium signal, replicate 1":"68.9 (active)","calcium signal, replicate 2":103}
{"target gene":"CG10803","reagent no.":1,"calcium signal, replicate 1":88.8,"calcium signal, replicate 2":168}
{"target gene":"CG31145","reagent no.":1,"calcium signal, replicate 1":93,"calcium signal, replicate 2":82}
{"target gene":"CG31145","reagent no.":2,"calcium signal, replicate 1":114,"calcium signal, replicate 2":82.4}
{"target gene":"CG31145","reagent no.":3,"calcium signal, replicate 1":108,"calcium signal, replicate 2":78.7}
{"target gene":"CG34187 (retired record) + Trpm","reagent no.":1,"calcium signal, replicate 1":99.2,"calcium signal, replicate 2":128}
{"target gene":"CG3330","reagent no.":1,"calcium signal, replicate 1":113,"calcium signal, replicate 2":123}
{"target gene":"RhoGAP15B","reagent no.":1,"calcium signal, replicate 1":109,"calcium signal, replicate 2":155}
{"target gene":"RhoGAP15B","reagent no.":2,"calcium signal, replicate 1":106,"calcium signal, replicate 2":137}
{"target gene":"Ilp1","reagent no.":1,"calcium signal, replicate 1":"57.4 (active)","calcium signal, replicate 2":92.3}
{"target gene":"CG14332","reagent no.":1,"calcium signal, replicate 1":111,"calcium signal, replicate 2":171}
